Taken from: PubChem BioAssay AID720505 (Drosophila RNAi Screening Center, 2013)
Assay: 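Knock-downs that reduce calcium influx once internal stores are emptied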 (primary screen). System: Drosophila S2R+ cells. Knock-down reagent: long dsRNA against Drosophila genes. Challenge: thapsigargin (2 µM) in calcium-free buffer to empty internal stores, then 2 mM calcium added back. Measured: 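Fluo-4 signal in 384-well plates read on a FLIPR after thapsigargin (2 µM, calcium-free) store depletion and 2 mM calcium add-back; unnormalised mean endpoint per well; screen run twice, selected wells retested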. Reading the numbers: calcium signal and retest calcium signal: higher = more calcium entry after store depletion. Hit rule: 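Knock-downs counted as hits when calcium entry dropped relative to STIM1 positive and Rho1 negative controls present on each plate; roughly 1500 genes called, with reductions of differing size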. Meaning of the calls: active = called as lowering calcium entry; inactive = not called.
The deposit covers about 20,000 reagents; shown is an unselected part of those that have a named target and a result. In the full data, about 2,100 (10%) are marked active. 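Raw plate signals without normalisation; calls rest on control-based scores that were not deposited; replicate 2 separates called from uncalled poorly.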 The numbers tell different reagents against one gene apart. A plus sign joins genes that one reagent is predicted to hit. Reagent sequences are not shown. The record does not give: the amount of reagent, the time to read-out.

predicted target | reagent | calcium signal, replicate 1 | calcium signal, replicate 2 | retest calcium signal, replicate 1 | retest calcium signal, replicate 2 | Outcome
CG15482 | 1 | 81.1 | 109 | – | – | inactive
CG14840 | 1 | 63.4 | 94.4 | – | – | inactive
CR42532 | 1 | 125 | 147 | – | – | inactive
CG11370 | 1 | 87.8 | 119 | – | – | inactive
Arp1 | 1 | 165 | 115 | – | – | inactive
CG14196 | 1 | 140 | 80.6 | – | – | inactive
if | 1 | 79.4 | 131 | – | – | inactive
Sara | 1 | 144 | 117 | – | – | inactive
Ser12 | 1 | 103 | 153 | – | – | inactive
Oatp74D | 1 | 156 | 109 | – | – | inactive
CysRS | 1 | 198 | 124 | 82.3 | 123 | inactive
CG42380 + CG42379 + PIG-M + 1 more | 1 | 65.5 | 4620 | – | – | active
CG42380 + CG42379 + PIG-M + 1 more | 2 | 90 | 85.8 | – | – | inactive
CG3847 | 1 | – | – | – | – | active
CG3847 | 2 | 75 | 115 | – | – | inactive
CG8003 | 1 | 76.9 | 112 | – | – | inactive
CG9682 | 1 | 95.1 | 144 | – | – | inactive
beat-Ib | 1 | 134 | 123 | – | – | inactive
CG11600 | 1 | 144 | 88.9 | – | – | inactive
ave | 1 | 55.4 | 135 | – | – | active
RpS13 | 1 | 104 | 211 | – | – | inactive
CG13067 | 1 | 67.5 | 114 | – | – | inactive
Dhc98D | 1 | 128 | 128 | – | – | inactive
CG32407 | 1 | 109 | 86.4 | – | – | inactive
Mrtf | 1 | 60.5 | 79.4 | – | – | inactive
Mrtf | 2 | 66.8 | 118 | – | – | inactive
Mrtf | 3 | 89.4 | 120 | – | – | inactive
Mrtf | 4 | 122 | 141 | – | – | inactive
CG13409 | 1 | 132 | 157 | – | – | inactive
Mad1 | 1 | 154 | 101 | – | – | inactive
mus101 | 1 | 76.4 | 85.9 | – | – | active
CG9269 | 1 | 120 | 200 | – | – | inactive
CG7519 | 1 | 103 | 104 | – | – | inactive
CG13252 | 1 | 108 | 130 | – | – | inactive
CheA87a | 1 | 130 | 219 | – | – | inactive
RpLP0-like | 1 | 139 | 198 | – | – | inactive
Rab5 | 1 | 55.5 | 97 | – | – | active
CG4459 | 1 | 146 | 190 | – | – | inactive
CG18765 | 1 | 167 | 96.1 | – | – | inactive
Cpsf5 | 1 | 95.4 | 114 | – | – | inactive
CG18789 | 1 | 82.3 | 125 | – | – | inactive
skd | 1 | 71.8 | 75 | – | – | active
SP1029 | 1 | 95.3 | 139 | – | – | inactive
CG9121 | 1 | 155 | 108 | – | – | inactive
Spn28Da | 1 | 95.9 | 149 | – | – | inactive
CG33259 | 1 | 62.8 | 154 | – | – | inactive
CG4328 | 1 | 92.5 | 90.3 | – | – | inactive
CG4328 | 2 | 149 | 165 | – | – | inactive
Vha14-2 | 1 | 100 | 134 | – | – | inactive
CG13996 | 1 | 157 | 97.6 | – | – | inactive
CG13428 | 1 | 135 | 119 | – | – | inactive
Optix | 1 | 121 | 138 | 5437 | 136 | inactive
Optix | 2 | 172 | 117 | – | – | inactive
Optix | 3 | 69.3 | 226 | – | – | inactive
CG3698 | 1 | 102 | 103 | – | – | inactive
side-VII | 1 | 126 | 123 | – | – | inactive

Look-ups from above.
Result of Mrtf #1 in “calcium signal, replicate 1”: 60.5
For “calcium signal, replicate 2”, side-VII reads 123
Under “calcium signal, replicate 1”, if has 79.4
Entry for CR42532 in “calcium signal, replicate 1”: 125
For “calcium signal, replicate 2”, CG4328 #1 is entered as 90.3
Result for CG18765 in “calcium signal, replicate 2”: 96.1
